In patent US20250352497A1, “BIGUANIDE BASE COMPOSITIONS, BIGUANIDE BASE PHARMACEUTICAL COMPOSITIONS, AND THEIR PREPARATIONS AND USES” (ADA FORSYTH INSTITUTE, INC., priority 2022, published 2025):

System: model microbiome simulating human oral microbiome
Experiment: pH of model microbiome (supernatant and saliva-derived biofilm) after treatment in the presence of 2% sucrose
Format: cell-based
Conditions: supernatant and biofilms, various concentrations
Experimental: Saliva samples were collected and pooled from 5 healthy volunteers as a model microbiome simulating human oral microbiome, and used to inoculate SHI medium containing different test compositions and controls.
1 mL pooled saliva sample was added to each well of a 24-well plate that had been pre-coated with sterilized, cell-free saliva. The plate was incubated at 37° C. for 16 h in microaerobic conditions (2% O2, 5% CO2, balanced with nitrogen) to allow biofilm formation. After incubation, planktonic portion was collected, optical density was measured at 600 nm and cells were pelleted for DNA isolation. Meanwhile, 1 mL of SHI medium was added to the biofilm portion of each well, biofilm cells were dispersed by scraping and vortex to break the cell aggregates. Optical density was measured at 600 nm and cells were collected for DNA isolation.
Supernatant and biofilms prepared with the model microbiome simulating human oral microbiome according to Example III were treated with embodiments of the CHX base composition (e.g., solution embodiments of the CHX base composition prepared according to Example I (the CHX base solutions); and MSN3 prepared according to Example II(B)(ii)). […]

## CCCCCCCCCCCCCCCC[n+]1ccccc1 [CPC, cetylpyridinium chloride]
  pH of the treated microbiome: ≤ 5.5
